Percent effect of library compounds

Amino acid sequences for entries named in this document (tags omitted). Residues count along the entry.
UniProt I6X8D2, whole entry: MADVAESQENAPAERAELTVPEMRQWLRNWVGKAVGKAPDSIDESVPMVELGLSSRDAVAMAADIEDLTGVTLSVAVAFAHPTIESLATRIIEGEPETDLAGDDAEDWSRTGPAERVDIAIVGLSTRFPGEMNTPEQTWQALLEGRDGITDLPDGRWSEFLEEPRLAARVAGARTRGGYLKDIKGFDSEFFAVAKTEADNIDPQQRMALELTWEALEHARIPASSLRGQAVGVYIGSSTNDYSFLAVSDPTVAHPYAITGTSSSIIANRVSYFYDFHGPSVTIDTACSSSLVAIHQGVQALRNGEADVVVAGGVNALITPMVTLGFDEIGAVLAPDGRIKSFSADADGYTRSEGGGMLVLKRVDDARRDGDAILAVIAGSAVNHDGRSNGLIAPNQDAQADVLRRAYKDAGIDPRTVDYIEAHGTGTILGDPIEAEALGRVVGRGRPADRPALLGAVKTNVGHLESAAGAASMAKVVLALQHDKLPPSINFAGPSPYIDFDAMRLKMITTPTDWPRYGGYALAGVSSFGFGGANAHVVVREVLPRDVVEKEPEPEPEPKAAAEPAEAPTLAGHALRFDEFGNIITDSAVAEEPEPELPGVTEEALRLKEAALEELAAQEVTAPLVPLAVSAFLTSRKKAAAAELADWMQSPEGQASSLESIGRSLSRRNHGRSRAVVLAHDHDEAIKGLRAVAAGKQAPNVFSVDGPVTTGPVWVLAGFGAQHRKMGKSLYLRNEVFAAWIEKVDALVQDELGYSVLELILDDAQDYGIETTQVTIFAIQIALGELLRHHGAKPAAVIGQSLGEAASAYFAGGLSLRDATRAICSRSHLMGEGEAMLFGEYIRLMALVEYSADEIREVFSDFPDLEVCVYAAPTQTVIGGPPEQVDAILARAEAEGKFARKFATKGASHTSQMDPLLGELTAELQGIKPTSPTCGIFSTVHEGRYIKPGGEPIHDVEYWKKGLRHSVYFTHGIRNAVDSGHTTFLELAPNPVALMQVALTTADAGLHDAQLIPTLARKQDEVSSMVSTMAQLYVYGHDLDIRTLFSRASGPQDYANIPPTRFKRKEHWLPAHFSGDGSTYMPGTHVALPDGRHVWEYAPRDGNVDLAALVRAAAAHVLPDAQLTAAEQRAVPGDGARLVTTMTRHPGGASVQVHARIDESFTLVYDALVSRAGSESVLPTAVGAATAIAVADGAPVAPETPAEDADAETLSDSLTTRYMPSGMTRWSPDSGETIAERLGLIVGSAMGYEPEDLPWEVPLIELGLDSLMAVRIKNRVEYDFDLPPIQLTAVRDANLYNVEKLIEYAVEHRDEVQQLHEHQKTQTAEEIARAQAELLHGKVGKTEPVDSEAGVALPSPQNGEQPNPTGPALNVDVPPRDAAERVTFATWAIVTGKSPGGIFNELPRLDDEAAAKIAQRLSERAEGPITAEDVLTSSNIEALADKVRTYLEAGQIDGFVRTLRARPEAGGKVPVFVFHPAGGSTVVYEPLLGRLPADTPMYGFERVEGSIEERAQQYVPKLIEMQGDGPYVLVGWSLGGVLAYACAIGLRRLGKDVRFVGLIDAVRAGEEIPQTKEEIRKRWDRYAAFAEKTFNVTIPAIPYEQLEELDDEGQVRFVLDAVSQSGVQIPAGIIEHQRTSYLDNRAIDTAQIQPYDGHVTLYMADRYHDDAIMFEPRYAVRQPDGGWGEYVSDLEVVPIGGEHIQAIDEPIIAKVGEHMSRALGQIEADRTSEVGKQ
UniProt A4I591, 1-473: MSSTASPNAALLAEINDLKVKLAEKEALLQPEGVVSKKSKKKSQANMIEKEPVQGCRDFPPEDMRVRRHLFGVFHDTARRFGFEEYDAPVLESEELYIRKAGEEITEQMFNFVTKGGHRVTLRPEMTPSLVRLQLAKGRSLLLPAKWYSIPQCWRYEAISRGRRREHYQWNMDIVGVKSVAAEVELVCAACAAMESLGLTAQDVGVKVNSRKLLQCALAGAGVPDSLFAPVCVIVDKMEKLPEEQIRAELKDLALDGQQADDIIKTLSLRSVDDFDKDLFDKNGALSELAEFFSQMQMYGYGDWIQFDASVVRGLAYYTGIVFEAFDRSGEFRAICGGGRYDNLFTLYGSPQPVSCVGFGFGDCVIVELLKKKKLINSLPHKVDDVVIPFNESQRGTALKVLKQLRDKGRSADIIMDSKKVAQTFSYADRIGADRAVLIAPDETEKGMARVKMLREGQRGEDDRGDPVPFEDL
UniProt P9WNZ1, whole entry: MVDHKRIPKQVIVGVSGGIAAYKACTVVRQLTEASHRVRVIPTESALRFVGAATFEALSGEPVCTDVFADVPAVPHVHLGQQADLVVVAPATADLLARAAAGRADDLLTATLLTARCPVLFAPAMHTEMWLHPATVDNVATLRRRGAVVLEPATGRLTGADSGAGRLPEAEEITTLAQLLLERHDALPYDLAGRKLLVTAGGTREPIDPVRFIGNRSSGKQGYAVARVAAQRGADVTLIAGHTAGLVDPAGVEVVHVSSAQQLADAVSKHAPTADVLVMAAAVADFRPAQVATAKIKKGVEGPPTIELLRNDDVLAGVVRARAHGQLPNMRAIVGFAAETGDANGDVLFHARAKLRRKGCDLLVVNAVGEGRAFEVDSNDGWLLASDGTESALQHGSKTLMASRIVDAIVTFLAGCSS

Source: ChEMBL document CHEMBL3988442, “University of Dundee, Small-Polar-MMV Screening Library” (2021).

A: 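Polyketide synthase Pks13, Mycobacterium tuberculosis (UniProt I6X8D2). Enzyme assay of the thioesterase domain of polyketide synthase 13; the read-out is not stated. Concentration: 30 µM. The record gives no direction; the compounds picked for IC50 retests had high values, so higher reads as stronger inhibition. Size under these conditions: about 67,000 compounds, about 300 of them at 50% or above in at least one test.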
B: 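Histidine-tRNA ligase, Leishmania infantum (UniProt A4I591). Enzyme assay of histidyl-tRNA synthetase; the read-out is not stated. Tested at 30 µM. Higher reads as stronger inhibition (inferred: compounds with an IC50 in retests scored well above the rest). The assay is labelled LdHisRS but filed under L. infantum. Of about 69,000 compounds tested this way, about 410 (0.6%) reached 50% or more in at least one test.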
C: 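Enzyme assay of CoaBC with a phosphate dye (Biomol Green) read at 650 nm. Target: Coenzyme A biosynthesis protein CoaBC, Mycobacterium tuberculosis (UniProt P9WNZ1). Tested at 30 µM. Higher reads as stronger inhibition, judged from the few compounds that gave an IC50. Most strong results did not repeat in a second test. About 67,000 compounds were tested under these conditions; 0.06% (about 40) showed 50% or more at least once.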

Each number is a percent effect as filed. How 0% and 100% were set is not recorded. Most values in the screen are low, and negative values occur. Compounds were drawn at random from those tested, without regard to their results. A dash means the value is not listed here; it may have been measured.

Compound | A | B | C
Cc1ccccc1C(=O)N1CCOC2(CNCCOC2)C1 (configuration not stated) | -5.723 | 15.38 | -5.757
CCc1ccc(C(=O)NCc2ccnc(N3CCN(C)CC3)c2)o1 | -22.56 | 16.51 | 3.836
CN(C)C(=O)CC1CC2(CCN(c3ncccn3)CC2)c2ccccc21 (configuration not stated) | -14.05 | 19.23 | 5.59
CO[C@@H]1CC[C@@H](NC(=O)CCc2ccc(Cl)cc2)[C@H]1O | 8.991 | 13.99 | 9.685
CN1CCCC1c1cccc(Cc2ccc(F)cc2)n1 (configuration not stated) | -14.86 | 2.062 | -1.695
CCSc1cc(C(=O)N(C(C)C)C2CC2)ccn1 | 5.589 | 4.651 | 0.1229
NC(=O)C1CCN(C(=O)NCc2ccccc2-n2cccn2)CC1 | -2.633 | 1.724 | 1.305
CCn1nc(C)c2nc(C(C)C)nc(NCCCO)c21 | -19.82 | 17.48 | 6.595
CCC1(CC)Cc2ccccc2-c2nc(NCCCO)[nH]c(=O)c21 | 88.82 | 15.79 | 5.316
COC(=O)[C@H](C)NC(=O)c1nc(C2CC2)n(-c2ccccc2Cl)n1 | -29.95 | 18.75 | 8.055
O=C(c1cnc(-c2ncccn2)s1)N1CCCC1Cn1cccn1 (configuration not stated) | -12.64 | 5.263 | 9.565
Cc1ccc(N(C)C2CCN(C(=O)c3ccsc3)CC2)nn1 | -10.1 | 21.92 | 0
CC(C)N1CCOC(c2ccnc(N(C)C)n2)C1 (configuration not stated) | -7.611 | 14.77 | 9.817
CCN1CCn2c(C)cnc2C12CCN(C(=O)c1cscn1)CC2 | -47.28 | -15.6 | 0.2353
CC(C)CC(NC(=O)CSCC(N)=O)c1cccs1 (configuration not stated) | -8.202 | 3.665 | -3.478
COc1nccc(N2CC[C@@H](N3CCCCCC3)[C@H](O)C2)c1C#N | -17.11 | 30.67 | -9.344
Cc1nn(C)c(C)c1C(=O)NCc1cc(N(C)C)nc2ccccc12 | 10.52 | -2.655 | 5.14
COc1ccc(CN(C)C(=O)NCc2c(C)cc(C)nc2OC)cc1 | -13.49 | -0.8772 | 2.738
Cc1nn(C)c(C)c1C(=O)N1CCN(C(=O)CCC2CCCCC2)CC1 | - | 18.25 | 4.668
CCCC(C#N)NC(=O)CCCOc1cccc(F)c1 (configuration not stated) | 5.817 | -6.593 | -4.024
CN(Cc1cn2c(n1)CN(C(=O)N(C)C)CC2)Cc1ccco1 | -12.66 | 11.5 | 11.16
Cn1ncc2c(N3CCN(C(=O)c4ccsc4)CC3)ncnc21 | 19.07 | 10.71 | 18.86
Cc1noc(C)c1-c1nc(NCCN(C)C)ncc1-c1cnccn1 | -1.257 | -5.263 | 1.46
CCCN1CCN(S(=O)(=O)c2ncn(C)c2Cl)CC1 | -30.63 | 28.77 | 1.282
CC1=Nc2c(c(=O)[nH]n2C2CCOCC2)C(c2cccc(Br)c2)S1 (configuration not stated) | -5.612 | 15.53 | 4.172
CCN1CCC(N[C@@H]2CC[C@@H]2NC(=O)Cc2csc(C)n2)CC1 | 64.61 | 9.524 | -3.23
CCc1nc(CN(C)C2CCN(CCc3ccncc3)C2)no1 (configuration not stated) | -5.099 | 8.929 | 6.818
Cc1n[nH]c(C)c1CCc1nc(C2CC2)n[nH]1 | 0.04843 | 18.25 | -3.194
Cc1cc(C)c(S(=O)(=O)Nc2c(C)noc2C)cc1C(=O)O | -12.44 | 10.96 | 8.367
Cn1cc(CNC(=O)C2CCCN(Cc3cccc(F)c3)C2)cn1 (configuration not stated) | -9.258 | 2.679 | -2.381
N#Cc1cccc(CNc2ccc(F)cc2OCCO)c1 | -21.07 | 26.51 | 2.913
Cc1ncsc1CCC(=O)NCc1cc2n(n1)CCNC2 | -31.89 | 26.03 | 5.383
CC(CCNC(=O)N(C)CC1CCOCC1)N1CCCCC1 (configuration not stated) | -18.71 | 5.263 | -0.8065
Fc1ccc(-c2noc(C3COCCO3)n2)cc1F (configuration not stated) | -10.11 | 21.43 | -0.6148
CCN(CC)Cc1cn2c(n1)CN(C(=O)c1cc(C)on1)CC2 | -27.29 | 10.53 | -1.799
CN(Cc1ccco1)C1CCC12CCN(C(=O)c1ccncc1)CC2 (configuration not stated) | -29.78 | 21.36 | 3.562
O=C(O)CCc1nc2nccc(C(F)(F)F)n2n1 | 18.58 | 16.49 | 0.8589
CC(Cn1ccnc1)NC(=O)NCCc1ccc(Cl)s1 (configuration not stated) | -32.78 | 14.55 | 9.439
CCc1[nH]c2c(CNC(=O)C3CCS(=O)(=O)CC3)cc(C)cc2c1C | 5.297 | 10.83 | 2.609
COc1ccc(-c2cn(CCn3c(C)cc(C)nc3=O)nn2)cn1 | -6.606 | 21.49 | 8.423
O=C(c1cscn1)N1CCC2(CCN(S(=O)(=O)c3ccccc3)C2)C1 (configuration not stated) | -32.97 | 11.5 | 11.16
O=C(CN1CCC(c2nnc(C(F)(F)F)o2)CC1)Nc1cccc(Cl)c1 | 1.969 | 4 | 4.573
Cn1cnnc1C1CCCN(C(=O)c2cc(C3CC3)on2)C1 (configuration not stated) | -8.809 | -1157 | -0.4854
CCN(CC)Cc1ccc(C(=O)N2CCCC2Cn2cccn2)o1 (configuration not stated) | -4.59 | 9.174 | -0.1245
O=c1c2ccc(Cl)cc2ncn1CCCN1CCCCC1CO (configuration not stated) | -13.25 | 19.57 | 3.281
O=C(C1CCCN1S(=O)(=O)C1CCCC1)N1CCSCC1 (configuration not stated) | -2.708 | 16.67 | -7.862
FC1(F)CCNCC12CCN(c1ncccn1)C2 (configuration not stated) | -33.24 | 16.24 | 4.583
CCOC(=O)c1sc(NC(=O)C(C)C)c(C#N)c1C | -9.027 | 20.22 | 3.008
Nc1cc2c(nn1)CCN(C(=O)C1CCc3ccccc31)C2 (configuration not stated) | - | 18.18 | 2.296
CC(=O)NCCc1ncnn1-c1ccc(F)c(Cl)c1 | -0.5924 | 28.57 | 6.695
COc1cc(CNCCc2cnn(C)c2)cc(OC)c1OC | -33.04 | 12.84 | 8.44
COc1ccccc1C(=O)NCC(c1cccn1C)N1CCOCC1 (configuration not stated) | -8.584 | 12.33 | -4.348
CC(=O)N1C[C@@H]2CC[C@H](C1)N(S(=O)(=O)c1ccc(F)cc1Cl)C2 | -26.56 | 8.197 | -3.469
O=C(C1CNCCO1)N1CCCC(c2ccccc2)(c2ccccc2)C1 (configuration not stated) | -17.87 | 4.444 | 0.4902
CCN(C(C)=O)C1CCN(c2nccc(C3CCCC3)n2)C1 (configuration not stated) | -36.94 | 27.27 | 2.899
CC(C)Cc1noc(CN2CCN(C(=O)c3ccccc3F)CC2)n1 | -13.68 | -21.43 | 15.35